Data published in patent US20240317754A1 (priority 2020, published 2024).
pIC50: −log10 of the molar value. For at least one compound, name, drawing or mass did not settle the structure.

Tested on: SARS-CoV-2 (B.1)
Format: cell-based

CCC(CC)COC(=O)[C@H](C)N[P@](=O)(OC[C@H]1O[C@@](C#N)(c2ccc3c(N)ncnn23)[C@H](O)[C@@H]1O)Oc1ccccc1 [RDV, remdesivir, reference compound]
pIC50: 5.77
